This passage reports binding results from PMC4777444.

Amino acid sequences for entries named in this document (tags omitted).
UniProt Q92841: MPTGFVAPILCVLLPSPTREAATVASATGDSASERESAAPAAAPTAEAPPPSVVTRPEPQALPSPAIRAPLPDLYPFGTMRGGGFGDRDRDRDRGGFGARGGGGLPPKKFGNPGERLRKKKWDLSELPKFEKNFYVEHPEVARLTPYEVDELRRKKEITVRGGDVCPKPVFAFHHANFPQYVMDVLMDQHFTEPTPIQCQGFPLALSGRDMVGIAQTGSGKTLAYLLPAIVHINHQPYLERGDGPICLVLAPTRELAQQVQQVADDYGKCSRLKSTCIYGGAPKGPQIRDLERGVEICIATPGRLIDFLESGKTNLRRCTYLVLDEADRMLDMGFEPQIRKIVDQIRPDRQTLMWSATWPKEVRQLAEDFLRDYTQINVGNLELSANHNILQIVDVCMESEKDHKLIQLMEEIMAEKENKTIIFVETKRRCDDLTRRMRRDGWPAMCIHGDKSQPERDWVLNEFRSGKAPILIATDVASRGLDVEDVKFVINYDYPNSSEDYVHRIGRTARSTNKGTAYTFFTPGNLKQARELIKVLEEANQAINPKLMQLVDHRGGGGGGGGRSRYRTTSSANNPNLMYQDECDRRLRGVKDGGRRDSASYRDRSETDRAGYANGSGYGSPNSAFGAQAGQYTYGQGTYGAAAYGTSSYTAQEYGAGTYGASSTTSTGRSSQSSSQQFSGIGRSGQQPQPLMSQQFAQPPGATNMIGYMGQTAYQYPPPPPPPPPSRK
UniProt Q13547: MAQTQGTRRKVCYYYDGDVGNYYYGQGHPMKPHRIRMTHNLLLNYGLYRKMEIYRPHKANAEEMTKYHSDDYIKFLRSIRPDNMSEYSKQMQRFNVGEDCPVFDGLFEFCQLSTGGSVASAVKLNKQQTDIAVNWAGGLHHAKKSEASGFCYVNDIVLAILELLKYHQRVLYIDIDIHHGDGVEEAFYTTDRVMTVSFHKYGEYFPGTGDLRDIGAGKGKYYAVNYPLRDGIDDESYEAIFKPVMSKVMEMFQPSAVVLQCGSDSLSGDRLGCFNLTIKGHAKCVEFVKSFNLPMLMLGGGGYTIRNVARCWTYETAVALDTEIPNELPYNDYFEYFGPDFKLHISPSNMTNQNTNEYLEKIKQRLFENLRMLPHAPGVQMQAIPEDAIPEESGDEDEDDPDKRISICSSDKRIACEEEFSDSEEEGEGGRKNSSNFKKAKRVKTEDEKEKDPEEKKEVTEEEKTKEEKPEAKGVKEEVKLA
UniProt Q92769: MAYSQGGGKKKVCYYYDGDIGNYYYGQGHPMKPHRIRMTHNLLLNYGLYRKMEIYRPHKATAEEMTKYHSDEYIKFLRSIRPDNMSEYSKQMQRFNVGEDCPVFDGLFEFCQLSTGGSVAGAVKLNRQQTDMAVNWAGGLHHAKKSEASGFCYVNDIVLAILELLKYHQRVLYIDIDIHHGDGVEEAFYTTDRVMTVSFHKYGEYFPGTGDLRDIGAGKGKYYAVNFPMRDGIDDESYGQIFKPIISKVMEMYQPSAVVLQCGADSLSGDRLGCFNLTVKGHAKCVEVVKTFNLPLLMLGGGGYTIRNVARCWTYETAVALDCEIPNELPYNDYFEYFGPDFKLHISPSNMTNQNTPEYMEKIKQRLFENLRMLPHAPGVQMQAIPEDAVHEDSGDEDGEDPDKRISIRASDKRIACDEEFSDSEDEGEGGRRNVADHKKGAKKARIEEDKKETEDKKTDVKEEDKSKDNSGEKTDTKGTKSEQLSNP
UniProt P83916: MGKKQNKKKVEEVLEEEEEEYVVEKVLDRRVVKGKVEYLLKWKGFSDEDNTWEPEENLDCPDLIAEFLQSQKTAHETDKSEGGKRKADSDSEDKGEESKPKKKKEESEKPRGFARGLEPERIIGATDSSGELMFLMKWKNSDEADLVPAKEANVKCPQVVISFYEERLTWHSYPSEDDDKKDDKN
UniProt Q13185: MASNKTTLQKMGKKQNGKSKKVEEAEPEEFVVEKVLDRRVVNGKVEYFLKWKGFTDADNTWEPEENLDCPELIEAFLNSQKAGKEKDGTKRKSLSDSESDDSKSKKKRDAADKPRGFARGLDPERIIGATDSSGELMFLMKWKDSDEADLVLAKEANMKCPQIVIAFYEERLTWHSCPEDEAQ
UniProt Q13263: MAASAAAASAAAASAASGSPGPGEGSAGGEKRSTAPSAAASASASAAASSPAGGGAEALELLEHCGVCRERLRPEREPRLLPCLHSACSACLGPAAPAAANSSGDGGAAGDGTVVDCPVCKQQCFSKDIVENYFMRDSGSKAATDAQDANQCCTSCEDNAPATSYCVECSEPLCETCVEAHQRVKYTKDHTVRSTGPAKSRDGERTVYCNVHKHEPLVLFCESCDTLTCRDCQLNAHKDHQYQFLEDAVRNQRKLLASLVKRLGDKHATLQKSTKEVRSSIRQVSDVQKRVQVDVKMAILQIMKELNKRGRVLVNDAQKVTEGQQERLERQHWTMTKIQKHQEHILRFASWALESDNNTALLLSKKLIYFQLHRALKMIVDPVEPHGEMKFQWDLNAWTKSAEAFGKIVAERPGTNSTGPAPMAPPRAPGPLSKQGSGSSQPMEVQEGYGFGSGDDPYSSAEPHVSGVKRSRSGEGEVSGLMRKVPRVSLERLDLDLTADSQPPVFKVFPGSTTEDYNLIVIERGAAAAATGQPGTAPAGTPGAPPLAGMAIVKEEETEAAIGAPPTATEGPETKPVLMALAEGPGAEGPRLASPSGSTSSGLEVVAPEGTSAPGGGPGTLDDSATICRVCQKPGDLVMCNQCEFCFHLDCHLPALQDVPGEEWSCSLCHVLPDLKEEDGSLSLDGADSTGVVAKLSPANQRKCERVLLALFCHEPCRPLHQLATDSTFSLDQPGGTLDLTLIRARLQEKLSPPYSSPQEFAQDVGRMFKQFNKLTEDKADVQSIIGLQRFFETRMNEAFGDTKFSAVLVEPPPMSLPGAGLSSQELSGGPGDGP
UniProt P30153: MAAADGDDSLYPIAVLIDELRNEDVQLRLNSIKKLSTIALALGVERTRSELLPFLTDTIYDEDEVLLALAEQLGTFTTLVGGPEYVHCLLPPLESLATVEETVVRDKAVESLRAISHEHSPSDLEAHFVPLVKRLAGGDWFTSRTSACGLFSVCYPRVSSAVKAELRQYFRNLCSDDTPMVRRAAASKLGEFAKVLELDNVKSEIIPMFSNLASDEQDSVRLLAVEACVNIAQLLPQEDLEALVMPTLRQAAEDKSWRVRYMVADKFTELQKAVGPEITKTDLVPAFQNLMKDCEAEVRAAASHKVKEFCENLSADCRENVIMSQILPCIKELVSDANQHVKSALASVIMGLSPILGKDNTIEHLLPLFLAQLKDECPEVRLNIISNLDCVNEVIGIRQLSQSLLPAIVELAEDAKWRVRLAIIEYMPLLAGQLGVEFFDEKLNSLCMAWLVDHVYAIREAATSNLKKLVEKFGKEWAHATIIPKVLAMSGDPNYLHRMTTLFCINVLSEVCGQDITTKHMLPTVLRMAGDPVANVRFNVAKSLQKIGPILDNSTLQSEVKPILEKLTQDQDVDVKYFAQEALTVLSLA
UniProt Q9NR30: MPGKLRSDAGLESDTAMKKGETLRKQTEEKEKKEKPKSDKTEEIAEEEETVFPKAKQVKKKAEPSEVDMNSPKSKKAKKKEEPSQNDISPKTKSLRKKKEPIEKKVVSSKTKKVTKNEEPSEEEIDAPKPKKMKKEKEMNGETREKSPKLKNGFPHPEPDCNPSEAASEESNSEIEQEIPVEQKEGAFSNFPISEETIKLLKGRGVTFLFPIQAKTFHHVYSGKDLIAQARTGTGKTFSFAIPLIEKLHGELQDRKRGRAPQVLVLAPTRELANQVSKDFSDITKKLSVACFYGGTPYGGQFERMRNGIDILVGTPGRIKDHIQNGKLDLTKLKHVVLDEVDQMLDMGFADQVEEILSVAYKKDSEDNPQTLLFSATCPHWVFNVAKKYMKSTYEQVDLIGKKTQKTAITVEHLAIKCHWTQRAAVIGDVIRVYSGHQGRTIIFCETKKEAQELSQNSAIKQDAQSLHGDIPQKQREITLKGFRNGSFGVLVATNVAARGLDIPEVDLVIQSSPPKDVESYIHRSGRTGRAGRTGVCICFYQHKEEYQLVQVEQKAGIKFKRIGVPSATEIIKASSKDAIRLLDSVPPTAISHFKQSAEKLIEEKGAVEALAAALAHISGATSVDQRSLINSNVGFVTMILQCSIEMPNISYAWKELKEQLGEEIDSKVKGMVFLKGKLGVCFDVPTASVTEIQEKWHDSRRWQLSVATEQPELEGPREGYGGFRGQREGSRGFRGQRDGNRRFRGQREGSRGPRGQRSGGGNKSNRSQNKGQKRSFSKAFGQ
UniProt Q96KQ7: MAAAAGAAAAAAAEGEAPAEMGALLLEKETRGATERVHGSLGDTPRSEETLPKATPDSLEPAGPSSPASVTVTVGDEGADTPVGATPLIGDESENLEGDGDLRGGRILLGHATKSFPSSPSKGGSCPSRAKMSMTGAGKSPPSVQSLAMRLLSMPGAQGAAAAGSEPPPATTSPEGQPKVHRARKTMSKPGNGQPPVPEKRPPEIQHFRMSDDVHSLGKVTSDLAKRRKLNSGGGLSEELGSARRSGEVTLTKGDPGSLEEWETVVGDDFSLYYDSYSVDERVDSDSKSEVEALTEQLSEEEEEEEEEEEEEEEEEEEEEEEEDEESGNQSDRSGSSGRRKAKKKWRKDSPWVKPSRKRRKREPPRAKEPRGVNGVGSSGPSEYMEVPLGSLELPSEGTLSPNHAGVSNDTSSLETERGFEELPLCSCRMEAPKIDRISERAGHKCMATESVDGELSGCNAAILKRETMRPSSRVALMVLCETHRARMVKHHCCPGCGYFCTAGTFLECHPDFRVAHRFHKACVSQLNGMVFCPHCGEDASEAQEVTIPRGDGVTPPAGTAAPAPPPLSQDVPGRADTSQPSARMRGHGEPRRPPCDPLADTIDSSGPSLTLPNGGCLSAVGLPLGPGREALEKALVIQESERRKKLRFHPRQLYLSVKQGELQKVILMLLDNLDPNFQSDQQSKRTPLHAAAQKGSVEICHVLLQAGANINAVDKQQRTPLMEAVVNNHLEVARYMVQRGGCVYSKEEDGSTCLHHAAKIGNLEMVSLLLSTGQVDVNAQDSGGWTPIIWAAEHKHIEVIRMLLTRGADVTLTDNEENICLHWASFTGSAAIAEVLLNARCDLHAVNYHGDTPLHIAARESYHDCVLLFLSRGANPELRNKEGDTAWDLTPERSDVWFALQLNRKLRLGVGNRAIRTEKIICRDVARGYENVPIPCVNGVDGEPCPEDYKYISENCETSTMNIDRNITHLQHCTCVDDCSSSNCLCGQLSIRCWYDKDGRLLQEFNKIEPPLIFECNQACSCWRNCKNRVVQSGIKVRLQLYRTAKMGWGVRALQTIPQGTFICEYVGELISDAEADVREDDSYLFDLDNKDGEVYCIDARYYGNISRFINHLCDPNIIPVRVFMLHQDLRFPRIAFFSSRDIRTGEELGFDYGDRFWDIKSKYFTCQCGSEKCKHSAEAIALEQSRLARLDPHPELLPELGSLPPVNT
UniProt P45973: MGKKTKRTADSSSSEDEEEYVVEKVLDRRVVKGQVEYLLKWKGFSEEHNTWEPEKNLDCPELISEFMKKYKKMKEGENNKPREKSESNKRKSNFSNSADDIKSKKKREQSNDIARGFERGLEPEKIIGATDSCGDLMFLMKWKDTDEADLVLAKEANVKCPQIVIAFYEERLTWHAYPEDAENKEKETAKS
UniProt Q9Y265: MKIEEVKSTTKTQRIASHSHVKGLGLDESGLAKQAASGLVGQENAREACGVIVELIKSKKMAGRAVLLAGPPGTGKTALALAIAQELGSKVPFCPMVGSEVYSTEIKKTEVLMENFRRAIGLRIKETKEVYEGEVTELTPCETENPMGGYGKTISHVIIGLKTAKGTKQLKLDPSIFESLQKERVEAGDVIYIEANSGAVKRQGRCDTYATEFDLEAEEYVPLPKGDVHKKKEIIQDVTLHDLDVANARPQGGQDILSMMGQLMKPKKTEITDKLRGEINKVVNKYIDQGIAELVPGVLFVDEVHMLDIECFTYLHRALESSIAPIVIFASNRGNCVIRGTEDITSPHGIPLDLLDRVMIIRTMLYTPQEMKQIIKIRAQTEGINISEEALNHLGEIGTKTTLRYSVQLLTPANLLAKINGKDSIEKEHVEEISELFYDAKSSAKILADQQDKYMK

Results are given in words; binding and its absence hold for the method and conditions named. In cells and extracts the contact can be indirect. These calls come from enrichment with a bait or labelling near it, and not all partners need be listed. Tags and fused reporters may be left off the sequences shown.

To fix the notation:
T1: His6-Protein-C-tagged BAHD1 (UniProt Q8TBE0)
T1 sequence: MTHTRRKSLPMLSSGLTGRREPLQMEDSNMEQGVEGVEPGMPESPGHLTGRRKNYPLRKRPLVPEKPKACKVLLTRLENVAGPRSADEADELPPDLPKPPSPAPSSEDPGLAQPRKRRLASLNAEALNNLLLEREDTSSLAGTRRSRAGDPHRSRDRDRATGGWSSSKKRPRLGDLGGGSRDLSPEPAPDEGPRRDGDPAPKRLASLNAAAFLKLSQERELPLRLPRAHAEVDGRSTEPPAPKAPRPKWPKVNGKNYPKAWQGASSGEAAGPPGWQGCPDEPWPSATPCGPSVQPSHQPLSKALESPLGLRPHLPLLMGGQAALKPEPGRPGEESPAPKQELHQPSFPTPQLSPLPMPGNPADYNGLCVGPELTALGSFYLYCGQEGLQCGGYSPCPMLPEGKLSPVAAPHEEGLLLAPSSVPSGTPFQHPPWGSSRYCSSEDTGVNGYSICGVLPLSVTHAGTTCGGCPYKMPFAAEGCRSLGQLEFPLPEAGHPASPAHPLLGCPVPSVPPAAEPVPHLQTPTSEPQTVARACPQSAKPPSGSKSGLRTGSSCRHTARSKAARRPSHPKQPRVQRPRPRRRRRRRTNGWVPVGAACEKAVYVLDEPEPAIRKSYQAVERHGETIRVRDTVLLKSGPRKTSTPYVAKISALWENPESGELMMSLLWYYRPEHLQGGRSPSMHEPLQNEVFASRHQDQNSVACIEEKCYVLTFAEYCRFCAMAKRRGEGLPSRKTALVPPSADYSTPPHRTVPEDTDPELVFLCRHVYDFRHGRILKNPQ

B1: CDYL1 (protein, UniProt Q9Y232 1-598)
chain: MTFQASHRSAWGKSRKKNWQYEGPTQKLFLKRNNVSAPDGPSDPSISVSSEQSGAQQPPALQVERIVDKRKNKKGKTEYLVRWKGYDSEDDTWEPEQHLVNCEEYIHDFNRRHTEKQKESTLTRTNRTSPNNARKQISRSTNSNFSKTSPKALVIGKDHESKNSQLFAASQKFRKNTAPSLSSRKNMDLAKSGIKILVPKSPVKSRTAVDGFQSESPEKLDPVEQGQEDTVAPEVAAEKPVGALLGPGAERARMGSRPRIHPLVPQVPGPVTAAMATGLAVNGKGTSPFMDALTANGTTNIQTSVTGVTASKRKFIDDRRDQPFDKRLRFSVRQTESAYRYRDIVVRKQDGFTHILLSTKSSENNSLNPEVMREVQSALSTAAADDSKLVLLSAVGSVFCCGLDFIYFIRRLTDDRKRESTKMAEAIRNFVNTFIQFKKPIIVAVNGPAIGLGASILPLCDVVWANEKAWFQTPYTTFGQSPDGCSTVMFPKIMGGASANEMLLSGRKLTAQEACGKGLVSQVFWPGTFTQEVMVRIKELASCNPVVLEESKALVRCNMKMELEQANERECEVLKKIWGSAQGMDSMLKYLQRKIDEF
B2: MIER2 (protein, UniProt Q8N344 1-545)
chain: MAEASSLGRQSPRVVSCLEHSLCPGEPGLQTTAVVSMGSGDHQFNLAEILSQNYSVRGECEEASRCPDKPKEELEKDFISQSNDMPFDELLALYGYEASDPISDRESEGGDVAPNLPDMTLDKEQIAKDLLSGEEEEETQSSADDLTPSVTSHEASDLFPNRSGSRFLADEDREPGSSASSDTEEDSLPANKCKKEIMVGPQFQADLSNLHLNRHCEKIYENEDQLLWDPSVLPEREVEEFLYRAVKRRWHEMAGPQLPEGEAVKDSEQALYELVKCNFNVEEALRRLRFNVKVIRDGLCAWSEEECRNFEHGFRVHGKNFHLIQANKVRTRSVGECVEYYYLWKKSERYDYFAQQTRLGRRKYVPSGTTDADQDLDGSDPDGPGRPRPEQDTLTGMRTDPLSVDGTAGGLDEPGVASDGLPSSEPGPCSFQQLDESPAVPLSHRPPALADPASYQPAVTAPEPDASPRLAVDFALPKELPLISSHVDLSGDPEETVAPAQVALSVTEFGLIGIGDVNPFLAAHPTCPAPGLHSEPLSHCNVMTC
B3: MBD1 (protein, UniProt Q9UIS9 1-605)
chain: MAEDWLDCPALGPGWKRREVFRKSGATCGRSDTYYQSPTGDRIRSKVELTRYLGPACDLTLFDFKQGILCYPAPKAHPVAVASKKRKKPSRPAKTRKRQVGPQSGEVRKEAPRDETKADTDTAPASFPAPGCCENCGISFSGDGTQRQRLKTLCKDCRAQRIAFNREQRMFKRVGCGECAACQVTEDCGACSTCLLQLPHDVASGLFCKCERRRCLRIVERSRGCGVCRGCQTQEDCGHCPICLRPPRPGLRRQWKCVQRRCLRGKHARRKGGCDSKMAARRRPGAQPLPPPPPSQSPEPTEPHPRALAPSPPAEFIYYCVDEDELQPYTNRRQNRKCGACAACLRRMDCGRCDFCCDKPKFGGSNQKRQKCRWRQCLQFAMKRLLPSVWSESEDGAGSPPPYRRRKRPSSARRHHLGPTLKPTLATRTAQPDHTQAPTKQEAGGGFVLPPPGTDLVFLREGASSPVQVPGPVAASTEALLQEAQCSGLSWVVALPQVKQEKADTQDEWTPGTAVLTSPVLVPGCPSKAVDPGLPSVKQEPPDPEEDKEENKDDSASKLAPEEEAGGAGTPVITEIFSLGGTRFRDTAVWLPRSKDLKKPGARKQ
B4: CDYL2 (protein, UniProt Q8N8U2 1-506)
chain: MASGDLYEVERIVDKRKNKKGKWEYLIRWKGYGSTEDTWEPEHHLLHCEEFIDEFNGLHMSKDKRIKSGKQSSTSKLLRDSRGPSVEKLSHRPSDPGKSKGTSHKRKRINPPLAKPKKGYSGKPSSGGDRATKTVSYRTTPSGLQIMPLKKSQNGMENGDAGSEKDERHFGNGSHQPGLDLNDHVGEQDMGECDVNHATLAENGLGSALTNGGLNLHSPVKRKLEAEKDYVFDKRLRYSVRQNESNCRFRDIVVRKEEGFTHILLSSQTSDNNALTPEIMKEVRRALCNAATDDSKLLLLSAVGSVFCSGLDYSYLIGRLSSDRRKESTRIAEAIRDFVKAFIQFKKPIVVAINGPALGLGASILPLCDIVWASEKAWFQTPYATIRLTPAGCSSYTFPQILGVALANEMLFCGRKLTAQEACSRGLVSQVFWPTTFSQEVMLRVKEMASCSAVVLEESKCLVRSFLKSVLEDVNEKECLMLKQLWSSSKGLDSLFSYLQDKIYEV

The target in one experiment is T1, His6-Protein-C-tagged BAHD1. Nature of the experiment: affinity purification with mass spectrometry; tandem affinity purification of His6-Protein-C-BAHD1 from solubilized chromatin extracts of HPT-BAHD1 cells: anti-protein C affinity matrix (E1), then nickel-Sepharose (E2); eluate after the two steps separated by SDS-PAGE and analysed by mass spectrometry; HPT-CT cells as control.
In the case of DDX17 (from UniProt Q92841 1-729), the binding result is “binds”. Consider “HDAC1 (from UniProt Q13547 1-482) (enzyme)”, for which the binding entry was “binds”. Turning to “HDAC2 (from UniProt Q92769 1-488) (enzyme)”, the binding entry is “binds”. Consider HP1β (from UniProt P83916 1-185), for which the binding entry was “binds”. On to HP1γ (from UniProt Q13185 1-183), for which the binding entry is listed as “binds”. Still for that read-out and setting: with KAP1 (from UniProt Q13263 1-835) the entry was “binds”.

On to PPP2R1A (from UniProt P30153 1-589), for which the binding entry is recorded as “binds”. Take B1: the binding entry is on record as “binds”. Regarding B2, the binding result is “binds”. B3: the binding result is “binds”.

A further experiment shares this target. Nature of the experiment: affinity purification with mass spectrometry; first-step purification only (E1, anti-protein C affinity matrix) of His6-Protein-C-BAHD1 from solubilized chromatin extracts of HPT-BAHD1 cells; mass spectrometry.
In the case of CHD3 (from UniProt Q12873 1-2000), the binding entry is recorded as “binds”. As for DDX21 (from UniProt Q9NR30 1-783), the binding entry is “binds”. Still for that read-out and setting: with “G9a (from UniProt Q96KQ7 1-1210) (enzyme)” the entry was “binds”; with HP1α (from UniProt P45973 1-191), “binds”. RUVBL1 (from UniProt Q9Y265 1-456): the binding entry is “binds”.

B4: the binding result is “binds”.
